Results on 2 molecules are retold here after patent US20150285810A1.

Experiment [1] has as its target purified cyclin B1/cdk1 complex. Briefly: GST-fragment beads incubated with cyclin B1/cdk1 complex in NP40 buffer, Western blot. (In general: Immunoblotting shows a protein as a band on a membrane.)
Experiment [2] has the same target. As to the kind of experiment: condition: 0.2 µg/ml cyclin B1/cdk1 complex on beads pre-bound with 5 µg fragment; GST-fragment beads incubated with cyclin B1/cdk1 complex in NP40 buffer, Western blot.

These are yes or no findings as the source states them, for the method shown. For some assays here: Binding can be weak; no strength is given. Sequences can lack the tags named with a protein.

B1: iASPP (1-240)-GST (protein, not shown: a dimerising Fc or GST)
chain: MDSEAFQSARDFLDMNFQSLAMKHMDLKQMELDTAAAKVDELTKQLESLWSDSPAPPGPQAGPPSRPPRYSSSSIPEPFGSRGSPRKAATDGADTPFGRSESAPTLHPYSPLSPKGRPSSPRTPLYLQPDAYGSLDRATSPRPRAFDGAGSSLGRAPSPRPGPGPLRQQGPPTPFDFLGRAGSPRGSPLAEGPQAFFPERGPSPRPPATAYDAPASAFGSSLLGSGGSAFAPPLRAQDDL
Consider B1, for which, in experiment [1], the binding result is on record as “binds”.

B2: iASPP (249-482)-GST (protein, not shown: a dimerising Fc or GST)
chain: AWNESDLDVAYEKKPSQTASYERLDVFARPASPSLQLLPWRESSLDGLGGTGKDNLTSATLPRNYKVSPLASDRRSDAGSYRRSLGSAGPSGTLPRSWQPVSRIPMPPSSPQPRGAPRQRPIPLSMIFKLQNAFWEHGASRAMLPGSPLFTRAPPPKLQPQPQPQPQPQSQPQPQLPPQPQTQPQTPTPAPQHPQQTWPPVNEGPPKPPTELEPEPEIEGLLTPVLEAGDVDEG
In the case of B2, the binding result in experiment [2] was “no binding”.
